Measured values taken from patent publication US20040219554, “Dna binding protein” (published 2004).
Where cells or extracts were used, other partners may take part. Negatives hold for the conditions tested. Protein sequences can lack the tags named with them.

Molecular target: T1, DUE-B (pGK16B, Gal4 activation domain fusion) (Homo sapiens) (UniProt Q8TEA8)
T1 sequence: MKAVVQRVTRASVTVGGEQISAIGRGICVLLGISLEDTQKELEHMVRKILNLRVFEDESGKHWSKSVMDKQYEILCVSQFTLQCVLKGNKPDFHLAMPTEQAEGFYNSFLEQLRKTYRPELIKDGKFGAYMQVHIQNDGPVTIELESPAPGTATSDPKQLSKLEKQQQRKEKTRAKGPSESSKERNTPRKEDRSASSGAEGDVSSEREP
Test: one hybrid
Settings: protein in cells, protein details: GAL4 activation domain fusion (pGAD-GH)

| Sequence | binding result (no sustained growth, reporter expression eliminated, variant of wild type DUE/ARS bait (DWAW)) | binding result (robust growth on his- with 3-AT) |
| --- | --- | --- |
| ATGAGAAGAATGTTTTTTGCGCTTCATGCCGTGGAATAACACAGCGTAAAAAATCCCGAGGGAATGCACATTGCATATTGCGCGTACGATCATTTCAGG (double strand) [mutant DUE/mutant ARS bait (DMAM)] | no binding | – |
| ATGAGAAGAATGTTTTTTGTTTTTCATGCCGTGGAATAACACAAAATAAAAAATCCCGAGGGAATATACATTATATATTAAATATAGATCATTTCAGG (double strand) [wild type DUE/ARS bait (DWAW)] | – | binds |
